# PubChem BioAssay AID330 (DTP/NCI, 2004)
# The list shows only some results of the screen, not a fair sample: it gathers tests that were run many times, whatever their T/C, doses with no T/C, and many T/C values between a quarter and a half above the control. Other doses and runs of a compound stand elsewhere. T/C: endpoint of the treated group in % of that of the vehicle group. Some doses have a count of surviving animals in place of a T/C: the source files T/C as zero there, which appears to mark a toxic dose or a test without result, not a measured value. Some survivor counts are full or nearly so, which does not show that the dose was tolerated: the source hardly ever lists a survival T/C far under the control, and the zero likely stands for such cases as well. Survivors were counted at the toxicity check, usually on the fifth day, unless a day is given; later deaths do not show. Schedule codes are those of the source, taken here to give the interval after Q, in days (D) or hours (H), and the number of doses after X. Some doses were run more than once; their values stand side by side, smallest first. Additions like (4×) count equal records among those shown. Where survival is the endpoint, this PubChem deposit counts one and a half times the control or more as active, and values a quarter to a half above the control carry no call in these data; other NCI protocols may use other cut-offs. Some T/C values carry the count of animals alive at the toxicity check (mostly the fifth day); where none is given, no animal had died by that day.
# Tested on: P388 leukemia ip, CD2F1 mice, survival T/C
# Assay: NCI In Vivo Anticancer Drug Screen. Data for tumor model P388 Leukemia (intraperitoneal) in CD2F1 (CDF1) mice
# Details: T/C endpoint: median survival time, higher T/C = longer survival
smiles,measurement,setting,value
CC[C@]1(O)C[C@H]2CN(CCc3c([nH]c4ccccc34)[C@@](C(=O)OC)(c3cc4c(cc3OC)N(C=O)[C@H]3[C@@](O)(C(=O)OC)[C@H](OC(C)=O)[C@]5(CC)C=CCN6CC[C@]43[C@@H]65)C2)C1,survivor count,"dose: 2.0 mg/kg/injection, schedule: Q04DX003 (iv), vehicle: saline",6 of 6
same,T/C,"dose: 2.25 mg/kg/injection, schedule: Q04DX003 (ip), vehicle: saline, evaluated on day 5",189 and 258 % of control
same,T/C,"dose: 2.25 mg/kg/injection, schedule: Q04DX003 (ip), vehicle: saline, evaluated on day 9",128 [8 of 9 alive] and 147 % of control
same,T/C,"dose: 2.5 mg/kg/injection, schedule: Q04DX003 (ip), vehicle: saline, evaluated on day 45",118 and 270 % of control
same,T/C,"dose: 2.5 mg/kg/injection, schedule: Q04DX003 (ip), vehicle: saline, evaluated on day 60",227 % of control
same,survivor count,"dose: 2.5 mg/kg/injection, schedule: Q04DX003 (ip), vehicle: saline",7 of 10
same,T/C,"dose: 2.9 mg/kg/injection, schedule: Q04DX003 (ip), vehicle: saline","73, 99, 119, 122, 147, 150, 153 [8 of 9 alive], 228 % of control"
same,survivor count,"dose: 3.0 mg/kg/injection, schedule: Q04DX002 (ip), vehicle: saline",8 of 8
same,T/C,"dose: 3.0 mg/kg/injection, schedule: Q04DX003 (ip), vehicle: saline, evaluated on day 20",99 % of control [5 of 6 alive]
same,T/C,"dose: 3.0 mg/kg/injection, schedule: Q04DX003 (ip), vehicle: saline, evaluated on day 23",214 % of control
same,T/C,"dose: 3.0 mg/kg/injection, schedule: Q04DX003 (ip), vehicle: saline, evaluated on day 29",295 % of control
same,T/C,"dose: 3.0 mg/kg/injection, schedule: Q04DX003 (ip), vehicle: saline, evaluated on day 30","88, 89, 96, 97, 98, 99, 100 (2×), 102, 104 (2×), 106 [5 of 6 alive], 108, 111, 114, 117, 119, 121, 123 (2×), 124, 129 (2×), 143, 147, 155, 179 [5 of 6 alive], 189 [5 of 6 alive], 190 [5 of 6 alive], 192, 198, 200 (2×), 206, 211, 214, 216, 218, 223 [3 of 4 alive], 230, 235, 239, 240, 243, 243 [5 of 6 alive], 245 (2×), 250, 255, 258, 262 (2×), 273, 283 [9 of 10 alive], 290, 294 % of control"
same,T/C,"dose: 3.0 mg/kg/injection, schedule: Q04DX003 (ip), vehicle: saline, evaluated on day 40",252 % of control
same,T/C,"dose: 3.0 mg/kg/injection, schedule: Q04DX003 (ip), vehicle: saline, evaluated on day 45","102 [9 of 10 alive], 112, 123 [9 of 10 alive], 192, 204, 205 (2×), 247, 259, 276, 280 % of control"
same,T/C,"dose: 3.0 mg/kg/injection, schedule: Q04DX003 (ip), vehicle: saline, evaluated on day 56",210 % of control
same,T/C,"dose: 3.0 mg/kg/injection, schedule: Q04DX003 (ip), vehicle: saline, evaluated on day 60","206, 273, 284 % of control"
same,survivor count,"dose: 3.0 mg/kg/injection, schedule: Q04DX003 (ip), vehicle: saline","8 of 10, 5 of 6, 9 of 10, 10 of 10, 6 of 6"
same,survivor count,"dose: 3.2 mg/kg/injection, schedule: Q01DX009 (ip), vehicle: saline",1 of 6 and 3 of 6
same,survivor count,"dose: 3.2 mg/kg/injection, schedule: Q04DX003 (ip), vehicle: water","3 of 6, 4 of 6, 6 of 6"
same,survivor count,"dose: 3.33 mg/kg/injection, schedule: Q04DX002 (ip), vehicle: saline",8 of 8
same,T/C,"dose: 4.0 mg/kg/injection, schedule: Q01DX001 (ip), vehicle: saline, evaluated on day 5","74, 139, 144, 180, 182 % of control"
same,T/C,"dose: 4.0 mg/kg/injection, schedule: Q01DX001 (ip), vehicle: saline, evaluated on day 30","142, 157, 175 [4 of 5 alive], 208 % of control"
same,survivor count,"dose: 4.0 mg/kg/injection, schedule: Q01DX001 (ip), vehicle: saline","0 of 3, 0 of 6, 1 of 6, 2 of 6, 3 of 6 (2×)"
same,T/C,"dose: 4.0 mg/kg/injection, schedule: Q01DX001 (ip), vehicle: water, evaluated on day 3",51 % of control
same,T/C,"dose: 4.0 mg/kg/injection, schedule: Q01DX001 (ip), vehicle: water, evaluated on day 5","90, 181, 185, 189, 190 % of control [8 of 9 alive]"
same,T/C,"dose: 4.0 mg/kg/injection, schedule: Q01DX001 (ip), vehicle: water, evaluated on day 6","148, 153, 158 % of control"
same,T/C,"dose: 4.0 mg/kg/injection, schedule: Q01DX001 (ip), vehicle: water, evaluated on day 10",97 % of control
same,T/C,"dose: 4.0 mg/kg/injection, schedule: Q01DX001 (ip), vehicle: water, evaluated on day 30","153, 160, 169 [5 of 6 alive] (2×), 170 [4 of 6 alive], 170 [5 of 6 alive], 172 [5 of 6 alive] (2×), 173, 175, 177 [5 of 6 alive] (2×), 180 [4 of 6 alive], 185 [5 of 6 alive], 189 [2 of 3 alive], 197, 198 % of control"
same,T/C,"dose: 4.0 mg/kg/injection, schedule: Q01DX001 (ip), vehicle: water, evaluated on day 35",169 % of control [5 of 6 alive]
same,survivor count,"dose: 4.0 mg/kg/injection, schedule: Q01DX001 (ip), vehicle: water","0 of 5, 0 of 6 (2×), 1 of 6, 1 of 3, 2 of 6 (2×), 3 of 6 (2×), 2 of 3, 4 of 6 (2×), 5 of 6, 3 of 3"
same,T/C,"dose: 4.0 mg/kg/injection, schedule: Q04DX003 (ip), vehicle: saline, evaluated on day 9",105 and 140 % of control
same,T/C,"dose: 4.0 mg/kg/injection, schedule: Q04DX003 (ip), vehicle: saline, evaluated on day 35",94 % of control
same,survivor count,"dose: 4.0 mg/kg/injection, schedule: Q04DX003 (ip), vehicle: saline",5 of 6
same,survivor count,"dose: 4.0 mg/kg/injection, schedule: Q04DX003 (iv), vehicle: saline",4 of 6
same,survivor count,"dose: 6.4 mg/kg/injection, schedule: Q01DX009 (ip), vehicle: saline",0 of 6
same,survivor count,"dose: 6.4 mg/kg/injection, schedule: Q04DX003 (ip), vehicle: water",4 of 6
same,survivor count,"dose: 8.0 mg/kg/injection, schedule: Q01DX001 (ip), vehicle: Klucel (hydroxypropylcellulose) (HPC)",5 of 6
same,T/C,"dose: 8.0 mg/kg/injection, schedule: Q01DX001 (ip), vehicle: saline, evaluated on day 5","37, 55, 145, 151 % of control"
same,T/C,"dose: 8.0 mg/kg/injection, schedule: Q01DX001 (ip), vehicle: saline, evaluated on day 30",142 [5 of 6 alive] and 179 % of control [5 of 6 alive]
same,survivor count,"dose: 8.0 mg/kg/injection, schedule: Q01DX001 (ip), vehicle: saline","0 of 3, 1 of 5, 2 of 6, 3 of 5"
same,T/C,"dose: 8.0 mg/kg/injection, schedule: Q01DX001 (ip), vehicle: water, evaluated on day 3",76 % of control
same,T/C,"dose: 8.0 mg/kg/injection, schedule: Q01DX001 (ip), vehicle: water, evaluated on day 6","71, 76, 90 % of control"
same,T/C,"dose: 8.0 mg/kg/injection, schedule: Q01DX001 (ip), vehicle: water, evaluated on day 10",97 % of control
same,T/C,"dose: 8.0 mg/kg/injection, schedule: Q01DX001 (ip), vehicle: water, evaluated on day 30","97, 156 [5 of 6 alive], 171 [4 of 6 alive], 219 % of control"
same,T/C,"dose: 8.0 mg/kg/injection, schedule: Q01DX001 (ip), vehicle: water, evaluated on day 35",195 % of control
same,survivor count,"dose: 8.0 mg/kg/injection, schedule: Q01DX001 (ip), vehicle: water","0 of 3, 0 of 6 (2×), 1 of 6, 2 of 6 (2×), 3 of 6 (3×), 2 of 3, 5 of 6, 6 of 6"
same,survivor count,"dose: 8.0 mg/kg/injection, schedule: Q04DX003 (ip), vehicle: saline",1 of 6
same,T/C,"dose: 8.0 mg/kg/injection, schedule: Q04DX003 (oral), vehicle: water",135 % of control
same,survivor count,"dose: 12.8 mg/kg/injection, schedule: Q01DX009 (ip), vehicle: saline",0 of 6
